# Test results as given in the supplement of paper PMC4604168 (melanoma cell lines).
# The other results are listed elsewhere or left out. Repeats are few or missing, and single values can be far off.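 Imaging used 1,536-well plates; nuclei positive for cleaved PARP by antibody were divided by total DNA-stained nuclei to yield the apoptosis fraction. Doses for screening kept most cells viable, and cell lines differ markedly in resting and induced cleaved-PARP levels.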
# Tested on: WM3526
# Experiment: cleaved PARP positive nuclei fraction relative to DMSO control; melanoma cells; higher = more apoptosis
# Conditions: library dose: low library concentration; 72 h
row,SMILES,cleaved PARP positive nuclei fraction
1,"CO[C@H]1C[C@@H]2CC[C@@H](C)[C@@](O)(O2)C(=O)C(=O)N2CCCC[C@H]2C(=O)O[C@H]([C@H](C)C[C@@H]2CC[C@@H](OCCO)[C@H](OC)C2)CC(=O)[C@H](C)/C=C(\C)[C@@H](O)[C@@H](OC)C(=O)[C@H](C)C[C@H](C)/C=C/C=C/C=C/1C [everolimus] + NCC(=O)Nc1ccc(-n2nc(C(F)(F)F)cc2-c2ccc3c(ccc4ccccc43)c2)cc1 [OSU03012] (first compound 0.02 µM, partner dose 1 µM)",450%
2,"CO[C@H]1C[C@@H]2CC[C@@H](C)[C@@](O)(O2)C(=O)C(=O)N2CCCC[C@H]2C(=O)O[C@H]([C@H](C)C[C@@H]2CC[C@@H](OCCO)[C@H](OC)C2)CC(=O)[C@H](C)/C=C(\C)[C@@H](O)[C@@H](OC)C(=O)[C@H](C)C[C@H](C)/C=C/C=C/C=C/1C [everolimus] + NC(=O)Nc1cc(-c2cccc(F)c2)sc1C(=O)N[C@H]1CCCNC1 [AZD7762] (first compound 0.02 µM, partner dose 0.02 µM)",107%
3,"CO[C@H]1C[C@@H]2CC[C@@H](C)[C@@](O)(O2)C(=O)C(=O)N2CCCC[C@H]2C(=O)O[C@H]([C@H](C)C[C@@H]2CC[C@@H](OCCO)[C@H](OC)C2)CC(=O)[C@H](C)/C=C(\C)[C@@H](O)[C@@H](OC)C(=O)[C@H](C)C[C@H](C)/C=C/C=C/C=C/1C [everolimus] + O=C(Nc1ccccc1)c1cc([N+](=O)[O-])ccc1Cl [GW9662] (first compound 0.02 µM, partner dose 2 µM)",106%
4,"CO[C@H]1C[C@@H]2CC[C@@H](C)[C@@](O)(O2)C(=O)C(=O)N2CCCC[C@H]2C(=O)O[C@H]([C@H](C)C[C@@H]2CC[C@@H](OCCO)[C@H](OC)C2)CC(=O)[C@H](C)/C=C(\C)[C@@H](O)[C@@H](OC)C(=O)[C@H](C)C[C@H](C)/C=C/C=C/C=C/1C [everolimus] + O=C1NC(=O)/C(=C/c2ccc(-c3ccc(F)cc3O)o2)S1 [AS252424] (first compound 0.02 µM, partner dose 1 µM)",116%
5,"O=C(O)[C@@H]1[O][Sb](=[O])([O][Sb]2(=[O])[O][C@H]([C@H](O)CO)[C@H](O)[C@H](C(=O)O)[O]2)[O][C@H]([C@H](O)CO)[C@@H]1O (some centres undefined) [stibogluconate] + Clc1ccc(Nc2nnc(Cc3ccncc3)c3ccccc23)cc1 [vatalanib] (first compound 2 µM, partner dose 2 µM)",71.4%
6,"CO[C@H]1C[C@@H]2CC[C@@H](C)[C@@](O)(O2)C(=O)C(=O)N2CCCC[C@H]2C(=O)O[C@H]([C@H](C)C[C@@H]2CC[C@@H](OCCO)[C@H](OC)C2)CC(=O)[C@H](C)/C=C(\C)[C@@H](O)[C@@H](OC)C(=O)[C@H](C)C[C@H](C)/C=C/C=C/C=C/1C [everolimus] + O=C(CCCCCCC(=O)Nc1ccccc1)NO [vorinostat] (first compound 0.02 µM, partner dose 0.08 µM)",77.9%
7,"CO[C@H]1C[C@@H]2CC[C@@H](C)[C@@](O)(O2)C(=O)C(=O)N2CCCC[C@H]2C(=O)O[C@H]([C@H](C)C[C@@H]2CC[C@@H](OCCO)[C@H](OC)C2)CC(=O)[C@H](C)/C=C(\C)[C@@H](O)[C@@H](OC)C(=O)[C@H](C)C[C@H](C)/C=C/C=C/C=C/1C [everolimus] + Clc1ccc(Nc2nnc(Cc3ccncc3)c3ccccc23)cc1 [vatalanib] (first compound 0.02 µM, partner dose 2 µM)",68.3%
8,"CO[C@H]1C[C@@H]2CC[C@@H](C)[C@@](O)(O2)C(=O)C(=O)N2CCCC[C@H]2C(=O)O[C@H]([C@H](C)C[C@@H]2CC[C@@H](OCCO)[C@H](OC)C2)CC(=O)[C@H](C)/C=C(\C)[C@@H](O)[C@@H](OC)C(=O)[C@H](C)C[C@H](C)/C=C/C=C/C=C/1C [everolimus] + O=C(O)c1ccc2c(c1)nc(Nc1cccc(Cl)c1)c1ccncc12 [CX4945] (first compound 0.02 µM, partner dose 0.4 µM)",125%
9,"CO[C@H]1C[C@@H]2CC[C@@H](C)[C@@](O)(O2)C(=O)C(=O)N2CCCC[C@H]2C(=O)O[C@H]([C@H](C)C[C@@H]2CC[C@@H](OCCO)[C@H](OC)C2)CC(=O)[C@H](C)/C=C(\C)[C@@H](O)[C@@H](OC)C(=O)[C@H](C)C[C@H](C)/C=C/C=C/C=C/1C [everolimus] + CNC(=O)c1cc(Oc2ccc(NC(=O)Nc3ccc(Cl)c(C(F)(F)F)c3)cc2)ccn1 [sorafenib] (first compound 0.02 µM, partner dose 0.4 µM)",107%
